Experimental findings from the supplement of paper PMC10735217 are described below.

For the test, the system named is HEK293A TEAD-LUC reporter. Nature of the test: TEAD-luciferase reporter activity (YAP activation), robust Z score vs plate; higher = stronger YAP/TEAD activation. The note with it: 24 h.

The other results are listed elsewhere or left out. Repeats in this data set agree poorly, so a single value says little.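 The human kidney-derived cells carry a stably integrated construct of eight TEAD-binding elements driving luciferase, read by luminescence in a drug-repurposing library screen. A compound counts as a hit when its signal is more than five robust Z scores above the plate mean.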

`O=C1N=C(NCc2cccs2)S/C1=C\c1ccc2ncccc2c1` [Cdk1 Inhibitor IV, RO-3306]: the TEAD-luciferase reporter activity is inactive: -0.571 (compound concentration: 200 nM) and inactive: 1.88 (compound concentration: 10 uM).

`O=c1c2ccccc2c(Cc2ccc(F)cc2)nn1C1CCCN(CCc2ccccc2)CC1` (stereo not given): the TEAD-luciferase reporter activity is inactive: -2.6 (compound concentration: 200 nM), inactive: -0.341 (compound concentration: 2 uM) and inactive: 4.6 (compound concentration: 10 uM).

Regarding `[Ba+2]`, the TEAD-luciferase reporter activity (compound concentration: 200 nM) was inactive: -0.411 and the TEAD-luciferase reporter activity (compound concentration: 10 uM) was inactive: -0.741.

On to `COc1cc(NC(=O)CCN2CCC(OC(=O)Nc3ccccc3-c3ccccc3)CC2)c(Cl)cc1CNC[C@H](O)c1ccc(O)c2[nH]c(=O)ccc12` [Batefenterol], for which the TEAD-luciferase reporter activity reads like this: (compound concentration: 200 nM) inactive: -1.45; (compound concentration: 2 uM) inactive: 2.09; (compound concentration: 10 uM) inactive: 0.112.

`Cc1ccc(C(=O)Oc2ccc(C(CN(C)C)C3(O)CCCCC3)cc2)cc1` (stereo not given): the TEAD-luciferase reporter activity by setting is: (compound concentration: 200 nM) inactive: 0.166; (compound concentration: 2 uM) inactive: -1.05; (compound concentration: 10 uM) inactive: -0.784.

Consider `CC(C)OC(=O)CCC/C=C\C[C@H]1C(=O)C=C[C@@H]1/C=C/[C@@H](O)CCc1ccccc1` [Posaraprost], for which the TEAD-luciferase reporter activity was inactive: -1.59 (compound concentration: 200 nM), inactive: 1.48 (compound concentration: 2 uM) and inactive: 1.84 (compound concentration: 10 uM).

For the molecule `CC/C(=C(\c1ccc(O)cc1)c1ccc(OCCN(C)C)cc1)c1ccccc1` [Afimoxifene], the TEAD-luciferase reporter activity runs as follows: (compound concentration: 200 nM) inactive: -0.595; (compound concentration: 2 uM) inactive: -0.585; (compound concentration: 10 uM) inactive: 0.825.

`CC1(C)C=C(c2cccc[n+]2[O-])c2cc(C#N)ccc2O1`: the TEAD-luciferase reporter activity (compound concentration: 200 nM) was inactive: 0.371, the TEAD-luciferase reporter activity (compound concentration: 2 uM) was inactive: -1.93 and the TEAD-luciferase reporter activity (compound concentration: 10 uM) is inactive: 0.28.

For `O=C(NCc1ccccc1)OCCO`, the TEAD-luciferase reporter activity is, setting by setting: (compound concentration: 200 nM) inactive: -1.3; (compound concentration: 2 uM) inactive: -0.508; (compound concentration: 10 uM) inactive: 2.21.

As to `COc1cccc(C(=O)N2C3CCCC2CC(=O)C3)c1`, the TEAD-luciferase reporter activity reads like this: (compound concentration: 200 nM) inactive: -1.71; (compound concentration: 10 uM) inactive: -0.71.

Take `COc1cc2c(cc1OC)-c1cc(NCC(C)C)nc(=O)n1CC2`: the TEAD-luciferase reporter activity is, setting by setting: (compound concentration: 200 nM) inactive: 1.98; (compound concentration: 2 uM) inactive: -1.2; (compound concentration: 10 uM) inactive: 0.806.

With `C=CC(=O)N1CCC[C@@H](n2nc(-c3ccc(Oc4ccccc4)cc3)c3c(N)ncnc32)C1` [ibrutinib], the TEAD-luciferase reporter activity (compound concentration: 200 nM) was inactive: -0.996, the TEAD-luciferase reporter activity (compound concentration: 2 uM) is inactive: -0.137 and the TEAD-luciferase reporter activity (compound concentration: 10 uM) was inactive: -0.328.

Regarding `CC(C)(OCc1nn(Cc2ccccc2)c2ccccc12)C(=O)O` [Bindarit], the TEAD-luciferase reporter activity reads like this: (compound concentration: 200 nM) inactive: 1.28; (compound concentration: 2 uM) inactive: 0.722; (compound concentration: 10 uM) inactive: -1.91.

On to `O=C1NCc2ccccc2CC12CCCN2Cc1ccc(O)cc1` (stereo not given), for which the TEAD-luciferase reporter activity by setting is: (compound concentration: 200 nM) inactive: 1.13; (compound concentration: 10 uM) inactive: -0.0388.

`C=CCOc1ccc(CC(=O)O)cc1Cl` [alclofenac]: the TEAD-luciferase reporter activity (compound concentration: 200 nM) was inactive: 0.383, the TEAD-luciferase reporter activity (compound concentration: 2 uM) is inactive: -1.83 and the TEAD-luciferase reporter activity (compound concentration: 10 uM) was inactive: 0.919.

On to `OC[C@H]1O[C@@H](n2cnc3c(NCc4ccccc4)ncnc32)[C@H](O)[C@@H]1O`, for which the TEAD-luciferase reporter activity is, setting by setting: (compound concentration: 200 nM) inactive: -0.642; (compound concentration: 2 uM) inactive: 1.8; (compound concentration: 10 uM) inactive: -0.334.

As to `CC[C@](NC(=O)[C@@H]1CCCN1)(C(=O)NCC(N)=O)c1ccccc1`, the TEAD-luciferase reporter activity is inactive: 0.471 (compound concentration: 200 nM), inactive: 0.343 (compound concentration: 2 uM) and inactive: 0.417 (compound concentration: 10 uM).

For `CC(C)[C@@H]1CC[C@@H](C)C[C@H]1C(=O)NC[C@@H](OCCN)c1ccccc1` [analog of D-3263], the TEAD-luciferase reporter activity (compound concentration: 2 uM) is inactive: 0.178.

For `CC(C)[C@@H]1CC[C@@H](C)C[C@H]1C(=O)NC[C@@H](OCCN)c1ccccc1`, the TEAD-luciferase reporter activity (compound concentration: 200 nM) is inactive: -1.82 and the TEAD-luciferase reporter activity (compound concentration: 10 uM) is inactive: 2.3.

Turning to `CC1(C)C(=O)Nc2cc3[nH]c(-c4ccncc4)nc3cc21`, the TEAD-luciferase reporter activity is, setting by setting: (compound concentration: 200 nM) inactive: 0.366; (compound concentration: 2 uM) inactive: -0.147; (compound concentration: 10 uM) inactive: 0.0753.

Turning to `CNCCOC(=O)c1cc(OC)c2c(c1-c1c(C(=O)O)cc(OC)c3c1OCO3)OCO2`, the TEAD-luciferase reporter activity is inactive: 3.78 (compound concentration: 200 nM), inactive: -0.485 (compound concentration: 2 uM) and inactive: -0.925 (compound concentration: 10 uM).

Consider `Cc1ccc(CC(=O)N(C)[C@H](Cc2ccc3ccccc3c2)C(=O)N[C@@H]2CCCC[C@@H]2NC(=O)c2c[nH]c3ccccc23)cc1`, for which the TEAD-luciferase reporter activity is, setting by setting: (compound concentration: 200 nM) inactive: -1.39; (compound concentration: 2 uM) inactive: -1.19; (compound concentration: 10 uM) inactive: -0.813.

For `CC(C(=O)O)c1ccc(-c2ccccc2)c(F)c1` (stereo not given) [flurbiprofen SR], the TEAD-luciferase reporter activity (compound concentration: 2 uM) was inactive: -0.149.

Consider `CC(C(=O)O)c1ccc(-c2ccccc2)c(F)c1` (stereo not given) [Flurbiprofen5104-49-4], for which the TEAD-luciferase reporter activity reads like this: (compound concentration: 200 nM) inactive: -0.24; (compound concentration: 10 uM) inactive: 0.833.

For the molecule `CNS(=O)(=O)CCc1ccc2[nH]cc(C3CCN(C)CC3)c2c1` [naratriptan], the TEAD-luciferase reporter activity runs as follows: (compound concentration: 200 nM) inactive: -1.08; (compound concentration: 2 uM) inactive: -0.197; (compound concentration: 10 uM) inactive: -1.21.

Regarding `CC(C)(C)c1ccc(C(O)CCCN2CCC(C(O)(c3ccccc3)c3ccccc3)CC2)cc1` (stereo not given) [terfenadine], the TEAD-luciferase reporter activity was inactive: -1.24 (compound concentration: 200 nM), inactive: -0.618 (compound concentration: 2 uM) and inactive: 0.463 (compound concentration: 10 uM).

`CCCS(=O)(=O)Nc1ccc(F)c(C(=O)c2c[nH]c3ncc(-c4ccc(Cl)cc4)cc23)c1F` [Vemurafenib]: the TEAD-luciferase reporter activity was inactive: -0.121 (compound concentration: 200 nM) and inactive: -1.66 (compound concentration: 2 uM).
